Laboratory results: publication PMC4432227
Results are given in words; binding and its absence hold for the method and conditions named. Sequences can lack the tags named with a protein.

T1: Arl8b (yeast two-hybrid fusion, Arl8b-pGBKT7), Q9NVJ2
T1 chain: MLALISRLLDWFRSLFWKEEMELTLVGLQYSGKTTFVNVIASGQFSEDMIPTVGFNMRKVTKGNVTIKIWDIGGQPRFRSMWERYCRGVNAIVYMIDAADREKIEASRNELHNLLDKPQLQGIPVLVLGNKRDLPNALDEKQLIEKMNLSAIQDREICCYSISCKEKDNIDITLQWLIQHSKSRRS

T2: hVps41 (yeast two-hybrid fusion) (human), P49754
T2 chain: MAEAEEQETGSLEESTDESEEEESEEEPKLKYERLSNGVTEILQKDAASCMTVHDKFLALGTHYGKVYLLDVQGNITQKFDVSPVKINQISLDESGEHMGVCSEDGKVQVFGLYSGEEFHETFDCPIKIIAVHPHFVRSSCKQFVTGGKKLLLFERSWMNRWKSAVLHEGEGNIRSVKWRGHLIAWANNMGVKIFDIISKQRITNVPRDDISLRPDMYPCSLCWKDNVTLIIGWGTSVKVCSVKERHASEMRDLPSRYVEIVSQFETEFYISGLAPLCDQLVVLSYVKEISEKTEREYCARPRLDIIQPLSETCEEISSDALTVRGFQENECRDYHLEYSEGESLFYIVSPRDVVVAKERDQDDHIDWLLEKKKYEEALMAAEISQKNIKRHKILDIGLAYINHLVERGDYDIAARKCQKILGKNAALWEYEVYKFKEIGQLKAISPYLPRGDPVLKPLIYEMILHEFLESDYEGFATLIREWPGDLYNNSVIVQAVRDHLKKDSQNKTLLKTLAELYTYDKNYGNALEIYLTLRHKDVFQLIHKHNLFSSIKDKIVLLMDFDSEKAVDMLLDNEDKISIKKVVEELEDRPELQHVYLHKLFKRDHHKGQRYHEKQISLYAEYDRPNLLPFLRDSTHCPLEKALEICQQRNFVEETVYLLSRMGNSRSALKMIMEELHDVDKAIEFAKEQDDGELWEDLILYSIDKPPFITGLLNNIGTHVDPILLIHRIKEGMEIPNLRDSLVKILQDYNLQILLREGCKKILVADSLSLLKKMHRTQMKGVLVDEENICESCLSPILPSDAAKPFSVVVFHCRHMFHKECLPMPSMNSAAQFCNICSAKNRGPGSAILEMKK

B1: hVps16 (yeast two-hybrid fusion), Q9H269 1-839 (protein)
chain: MDCYTANWNPLGDSAFYRKYELYSMDWDLKEELRDCLVAAAPYGGPIALLRNPWRKEKAASVRPVLDIYSASGMPLASLLWKSGPVVSLGWSAEEELLCVQEDGAVLVYGLHGDFRRHFSMGNEVLQNRVLDARIFHTEFGSGVAILTGAHRFTLSANVGDLKLRRMPEVPGLQSAPSCWTVLCQDRVAHILLAVGPDLYLLDHAACSAVTPPGLAPGVSSFLQMAVSFTYRHLALFTDTGYIWMGTASLKEKLCEFNCNIRAPPKQMVWCSRPRSKERAVVVAWERRLMVVGDAPESIQFVLDEDSYLVPELDGVRIFSRSTHEFLHEVPAASEEIFKIASMAPGALLLEAQKEYEKESQKADEYLREIQELGQLTQAVQQCIEAAGHEHQPDMQKSLLRAASFGKCFLDRFPPDSFVHMCQDLRVLNAVRDYHIGIPLTYSQYKQLTIQVLLDRLVLRRLYPLAIQICEYLRLPEVQGVSRILAHWACYKVQQKDVSDEDVARAINQKLGDTPGVSYSDIAARAYGCGRTELAIKLLEYEPRSGEQVPLLLKMKRSKLALSKAIESGDTDLVFTVLLHLKNELNRGDFFMTLRNQPMALSLYRQFCKHQELETLKDLYNQDDNHQELGSFHIRASYAAEERIEGRVAALQTAADAFYKAKNEFAAKATEDQMRLLRLQRRLEDELGGQFLDLSLHDTVTTLILGGHNKRAEQLARDFRIPDKRLWWLKLTALADLEDWEELEKFSKSKKSPIGYLPFVEICMKQHNKYEAKKYASRVGPEQKVKALLLVGDVAQAADVAIEHRNEAELSLVLSHCTGATDGATADKIQRARAQAQKK
B2: hVps41 (yeast two-hybrid fusion), P49754 1-854 (protein)
chain: T2 chain

Key:
Test in all cases: two-hybrid; S. cerevisiae AH109 co-transformants (pGBKT7 and pGADT7), grown at 30°C, replated on non-selection (+HIS) and selection (−HIS) plates
Conditions in all cases: remark: other sources report otherwise
[1] = target: T1, Arl8b (yeast two-hybrid fusion, …)
[2] = target: T2, hVps41 (yeast two-hybrid fusion) …
[3] = target: Rab7 (yeast two-hybrid fusion), P51149

Binder | binding [1] | binding [2] | binding [3]
B1 | no binding | no binding | –
B2 | – | – | no binding
